Where “and” joins values, the source holds several entries; their conditions need not be identical. Equal entries are not always repeated. Hit rate of the full screen: of about 390,000 compounds, about 910 (0.23%) were called active. Inconclusive results, whose numbers are uncertain, are shown with a selection of clear calls. The call rests on the fitted dose curve; in most records, active means well fitted inhibition curve with a large enough effect; inconclusive means small, poorly fitted or top-dose-only effect; inactive means no such curve, though single readings can be large or run the other way. Where the call is inconclusive, the potency comes from a doubtful curve fit.
Biological target: Ubiquitin carboxyl-terminal hydrolase 1 (Homo sapiens) (UniProt O94782)
Assay: Inhibitors of USP1/UAF1: Primary Screen; further: nearly all actives have a fitted effect of over 60% in size
Settings: recombinant USP1/UAF1, Ub-Rhodamine cleavage fluorescence; series mostly up to 57.1 µM
Summary of the method: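 USP1/UAF1 complex (1 nM) preincubated 15 min at room temperature with compound, then Ub-Rho substrate (150 nM final) added. Kinetic fluorescence at 480/540 nm over 6 reads at 60 s intervals; 50 mM HEPES pH 7.8, 0.5 mM EDTA, 0.1 mg/ml BSA, 1 mM TCEP, 0.01% Tween-20.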
Potency means the concentration at half of the fitted maximal effect.

Protein sequences, listed by entry. Tags and fused reporters are not part of them. Lines headed by an entry give the natural chain unless they say otherwise; changes in a name come on top.
UniProt O94782: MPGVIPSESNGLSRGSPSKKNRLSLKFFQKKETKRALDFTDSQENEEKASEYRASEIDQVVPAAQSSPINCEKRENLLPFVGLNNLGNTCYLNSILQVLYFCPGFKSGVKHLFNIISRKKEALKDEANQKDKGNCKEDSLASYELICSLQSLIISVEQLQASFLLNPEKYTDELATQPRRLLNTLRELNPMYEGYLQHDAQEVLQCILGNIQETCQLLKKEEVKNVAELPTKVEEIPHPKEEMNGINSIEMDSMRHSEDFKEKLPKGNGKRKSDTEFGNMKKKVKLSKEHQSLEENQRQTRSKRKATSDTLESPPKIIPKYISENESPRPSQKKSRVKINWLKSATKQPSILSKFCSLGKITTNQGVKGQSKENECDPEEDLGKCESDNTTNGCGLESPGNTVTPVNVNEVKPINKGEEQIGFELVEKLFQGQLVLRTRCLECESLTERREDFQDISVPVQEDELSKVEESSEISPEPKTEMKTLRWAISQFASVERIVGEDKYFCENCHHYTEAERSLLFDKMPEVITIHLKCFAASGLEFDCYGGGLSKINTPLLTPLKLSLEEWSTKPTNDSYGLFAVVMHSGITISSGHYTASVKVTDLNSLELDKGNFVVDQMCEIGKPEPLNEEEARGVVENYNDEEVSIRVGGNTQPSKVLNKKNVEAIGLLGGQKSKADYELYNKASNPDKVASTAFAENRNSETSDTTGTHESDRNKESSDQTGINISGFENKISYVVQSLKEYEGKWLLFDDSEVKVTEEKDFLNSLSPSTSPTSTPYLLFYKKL

Compound	Potency
CCOCCCNC(=O)Cn1cc2c(n1)-c1c(oc(C(=O)N3CCCC3)c1C)CC2	inconclusive: 31.6 µM [inhibitor, single point] and inconclusive: 39.8 µM [inhibitor, partial curve]
CC[C@H](C)/C=C/C1=CC2=C(Cl)C(=O)[C@@]3(C)OC(=O)C(C(=O)[C@H](C)[C@@H](C)O)=C3C2=CO1	inconclusive: 50.1 µM [inhibitor, partial curve, poor fit]
OC(CN1CCCCC1)c1ccc2c3c(cccc13)CC2 (centres undefined)	inconclusive: 3.98 µM [inhibitor, partial curve]
CN(C(=O)CN1CCN(c2ccccc2F)CC1)C1CCCc2ccccc21 (centres undefined)	inactive
CC(C)(C)C(=O)Nc1ccc2nc(SCCOc3ccccc3Cl)sc2c1	inconclusive: 39.8 µM [inhibitor, partial curve, poor fit]
Nc1ccc(C(=O)Nc2ccc3c(O)cc(S(=O)(=O)O)cc3c2)cc1	inconclusive: 44.7 µM [inhibitor, partial curve, poor fit]
C=C1CCN([C@@H](Cc2ccccc2)C(=O)Nc2ccc(OC)cc2)S(=O)(=O)c2ccccc21	inactive
COc1ccc(CNCCC2(Cc3ccccc3)CC(C)N(C)CC2C)cc1OC (centres undefined)	inconclusive: 0.355 µM [inhibitor, full curve, poor fit]
COc1cccc(NC(=S)/C(=C(\[O-])c2ccc(C)c([N+](=O)[O-])c2)[n+]2ccccc2)c1	inactive
C#CCNC(=O)C1=C[C@@H](C2CC2)C[C@@H](OCc2ccc(CO)cc2)O1	inconclusive: 2.51 µM [inhibitor, full curve, poor fit]
CCOC(=O)N1CCC(NC(=O)C2CCCN(c3nc4ccccc4o3)C2)CC1 (centres undefined)	inconclusive: 5.01 µM [inhibitor, partial curve]
Cc1ccc2c(c1)COc1c3ccc(C(=O)N4CCCCC4)cc3nn1-2	inconclusive: 2.51 µM [inhibitor, full curve]
O=C(Nc1cccc(O)c1)c1cc(-c2ccccc2F)no1	inconclusive: 3.55 µM [inhibitor, partial curve]
O=C1Nc2cc(Cl)cnc2N2CCCC12 (centres undefined)	inconclusive: 6.31 µM [inhibitor, partial curve]
Cc1ccc(NC(=O)CCc2c(C)nc3ncnn3c2C)cc1Cl	inconclusive: 3.98 µM [inhibitor, full curve, poor fit]
CC(C)c1ccc2oc(-c3cc(NC(=O)c4cccnc4)ccc3Cl)nc2c1	inconclusive: 0.562 µM [inhibitor, full curve, poor fit]
CCOC(=O)C1=C(C)N(CCCCCC(=O)O)C(=O)NC1c1ccc(Br)cc1 (centres undefined)	inconclusive: 6.31 µM [inhibitor, partial curve]
Cc1ccc(O)c(Nc2c3ccccc3nc3ccccc23)c1	inactive
O=C(Nc1ccc(Oc2ccc(C(=O)O)c(C(=O)O)c2)cc1)c1cccs1	inconclusive: 44.7 µM [inhibitor, partial curve]
C[n+]1c2n(c3ccccc31)N=C(c1ccc(Br)cc1)CS2	inactive
O=C(OCC(=O)c1cccs1)c1ccc(NC(=O)c2ccco2)cc1	inactive
COc1ccc(NC(=O)Cn2c(SCc3ccc(F)cc3)nc3cccnc32)c(OC)c1	inactive

Compound	Potency
CCC(C)NCCCOc1ccc(C)cc1OC (centres undefined)	inconclusive: 1.41 µM [inhibitor, full curve, poor fit]
CCS(=O)(=O)C1=NN2C(=N)/C(=C\c3ccc(SCc4ccco4)o3)C(=O)N=C2S1	inconclusive: 8.91 µM [inhibitor, full curve]
CC(Nc1nc(-c2ccc(F)cc2)cs1)c1nc2cc(Cl)c(Cl)cc2n1CCCO (centres undefined)	inactive
C=CCN(C(=O)c1csnn1)C(C(=O)NC1CCCCC1)c1ccccc1 (centres undefined)	inconclusive: 7.08 µM [inhibitor, single point]
C[C@H](CO)N1C[C@H](C)[C@@H](CN(C)C(=O)Nc2ccc(C(F)(F)F)cc2)Oc2ccc(NC(=O)Nc3ccc(C(F)(F)F)cc3)cc2C1=O	inconclusive: 35.5 µM [inhibitor, partial curve]
Oc1ccc(N=C/C=C/c2cccc(Br)c2)cc1-c1nc2ccccc2s1	inconclusive: 25.1 µM [inhibitor, partial curve]
Cc1ccc2c(c1)C(c1ccccc1)N(C(=O)c1ccc(S(=O)(=O)N3CCCC3)cc1)CC(=O)N2 (centres undefined)	inconclusive: 10 µM [inhibitor, partial curve, poor fit]
Cc1cc(C)c(S(=O)(=O)/N=C2\C=C(Nc3ccc(C(=O)O)cc3)C(=O)c3ccccc32)c(C)c1	active: 14.1 µM
O=c1oc2c(CN3CCCCC3)c(O)ccc2cc1-c1nc2ccccc2[nH]1	active: 28.2 µM
CN(C)S(=O)(=O)Oc1ccsc1C(=O)Nc1ccc(C(F)(F)F)cc1	inconclusive: 35.5 µM [inhibitor, partial curve]
Cc1cc(C)c2c(N)c(C(=O)NN3CC(=O)N(c4cccc(Cl)c4)CC3=O)sc2n1	inactive
CCOc1ccc(-c2nnc(SCC(=O)Oc3ccccc3)o2)cc1	inconclusive: 14.1 µM [inhibitor, partial curve, poor fit]
Cc1ccc(C(=O)Nc2nnc(S(=O)(=O)N(C)Cc3ccc(F)cc3)s2)cc1	inactive
O=C(O)c1ccccc1NS(=O)(=O)c1ccc(N/N=C/c2ccc(O)c(O)c2)c([N+](=O)[O-])c1	inconclusive: 31.6 µM [inhibitor, partial curve]
COc1ccc([C@H]2C[C@H](n3cc(-c4ccc(F)cc4)nn3)[C@@H](O)CN2C(=O)C2CCCCC2)cc1	inactive
COc1cccc2c1O/C(=N\O)C(C(=O)Nc1cccc(C)c1C)C2 (centres undefined)	inconclusive: 0.251 µM [inhibitor, full curve, poor fit]
COc1ccc(-n2ccnc(NCc3cccs3)c2=O)cc1	inactive
COCCNC(=O)c1ccc(-n2c(-c3ccccc3)cc3c2CCC(C)C3)cc1 (centres undefined)	inactive
COc1cc(OC)cc(OCC(O)Cn2cnc(-c3ccccc3)c2)c1 (centres undefined)	inconclusive: 4.47 µM [inhibitor, partial curve]
O=C(Nc1ccc2nc3n(c(=O)c2c1)CCCCC3)C(=O)Nc1ccccc1F	inconclusive: 0.794 µM [inhibitor, full curve]
Cc1cc(C)c(NC(=O)CCN2CCN(Cc3ccccc3)CC2)c(C)c1	inconclusive: 5.62 µM [inhibitor, partial curve]
CCOC(=O)[C@H]1[C@H]2COc3ccc(Br)cc3[C@H]2N2C(=O)CN(Cc3ccc(Cl)cc3)C(=O)[C@@]12C	inactive

Compound	Potency
Cc1ccc(-n2ncc(C(=O)NCc3ccccc3)c2C2CCN(C(=O)OC(C)(C)C)CC2)cc1	inconclusive: 44.7 µM [inhibitor, partial curve, poor fit]
CN1CCC2(CC1)N=C(c1ccc(F)cc1)C(=S)N2C(=O)c1ccc(C(C)(C)C)cc1	inconclusive: 31.6 µM [inhibitor, partial curve]
O=C1/C(=C\c2cccs2)Sc2ccc3ccccc3c21	active: 31.6 µM
COc1ccc(NC(=O)c2sc3nc4c(cc3c2N)CCCCCC4)c(OC)c1	inconclusive: 15.8 µM [inhibitor, partial curve, poor fit]
COc1ccc([N+](=O)[O-])cc1NC(=O)CCN1CCN(C)CC1	inconclusive: 4.47 µM [inhibitor, single point]
CCOCCCNC(=O)C1c2ccccc2C(=O)N2CCc3ccccc3C12 (centres undefined)	inconclusive: 31.6 µM [inhibitor, single point]
Cc1onc(-c2c(F)cccc2Cl)c1C(=O)N=C(N)N1CC(C)OC(C)C1 (centres undefined)	inconclusive: 4.47 µM [inhibitor, partial curve]
C[C@@H](C(=O)Nc1ccc(SC(F)F)cc1)N1C(=O)C2CCCCC2C1=O (some centres undefined)	inconclusive: 0.708 µM [inhibitor, full curve, poor fit]
COc1ccccc1CNC(=O)c1cnc(N(C)C)nc1	inconclusive: 14.1 µM [inhibitor, partial curve, poor fit]
C=CCNc1ncnc2sc(SC)nc12	inactive
Cc1cc(N)n2ncc(-c3ccc(Cl)cc3)c2n1	inactive
O=C1CSC(=S)N1/N=C/c1ccc(O)c(O)c1O	inconclusive: 3.98 µM [inhibitor, full curve, poor fit]
N=C1SCC(=O)N1c1ccccc1Cl	inactive
Cc1cc(O)c(-c2cc(O)c(C)cc2O)cc1O	inactive
COc1cc(OC)c2c(-c3cccc(/C=C/c4ccc(F)cc4)c3)cc(=O)oc2c1	inconclusive: 0.251 µM [inhibitor, full curve, poor fit]
COc1cc2c(cc1OC)C(c1ccc(F)cc1)N(c1ccc(F)cc1)C(=O)C2 (centres undefined)	inconclusive: 0.447 µM [inhibitor, full curve, poor fit]
COc1ccc(-n2c(=O)c3sc4ccccc4c3n(Cc3ccccc3)c2=O)cc1	inconclusive: 70.8 µM [inhibitor, partial curve, poor fit]
COc1ccc(Cl)cc1S(=O)(=O)Nc1cccc(-c2ccc(N3CCOCC3)nn2)c1	inconclusive: 1 µM [inhibitor, full curve, poor fit]
Cc1ccc2c(c1)nc(SCC(O)c1ccc(Br)cc1)n2C (centres undefined)	inconclusive: 0.631 µM [inhibitor, full curve, poor fit]
O=C(Nc1ccc(OC(F)(F)F)cc1)NC1COc2ccccc2C1 (centres undefined)	inconclusive: 35.5 µM [inhibitor, partial curve]

Rewritten as comma-separated lines: 16 of the compounds above
Compound,Potency
CN1CCC2(CC1)N=C(c1ccc(F)cc1)C(=S)N2C(=O)c1ccc(C(C)(C)C)cc1,"inconclusive: 31.6 µM [inhibitor, partial curve]"
O=C1/C(=C\c2cccs2)Sc2ccc3ccccc3c21,active: 31.6 µM
COc1ccc(NC(=O)c2sc3nc4c(cc3c2N)CCCCCC4)c(OC)c1,"inconclusive: 15.8 µM [inhibitor, partial curve, poor fit]"
COc1ccc([N+](=O)[O-])cc1NC(=O)CCN1CCN(C)CC1,"inconclusive: 4.47 µM [inhibitor, single point]"
CCOCCCNC(=O)C1c2ccccc2C(=O)N2CCc3ccccc3C12 (centres undefined),"inconclusive: 31.6 µM [inhibitor, single point]"
Cc1onc(-c2c(F)cccc2Cl)c1C(=O)N=C(N)N1CC(C)OC(C)C1 (centres undefined),"inconclusive: 4.47 µM [inhibitor, partial curve]"
C[C@@H](C(=O)Nc1ccc(SC(F)F)cc1)N1C(=O)C2CCCCC2C1=O (some centres undefined),"inconclusive: 0.708 µM [inhibitor, full curve, poor fit]"
COc1ccccc1CNC(=O)c1cnc(N(C)C)nc1,"inconclusive: 14.1 µM [inhibitor, partial curve, poor fit]"
C=CCNc1ncnc2sc(SC)nc12,inactive
Cc1cc(N)n2ncc(-c3ccc(Cl)cc3)c2n1,inactive
O=C1CSC(=S)N1/N=C/c1ccc(O)c(O)c1O,"inconclusive: 3.98 µM [inhibitor, full curve, poor fit]"
N=C1SCC(=O)N1c1ccccc1Cl,inactive
Cc1cc(O)c(-c2cc(O)c(C)cc2O)cc1O,inactive
COc1cc(OC)c2c(-c3cccc(/C=C/c4ccc(F)cc4)c3)cc(=O)oc2c1,"inconclusive: 0.251 µM [inhibitor, full curve, poor fit]"
COc1cc2c(cc1OC)C(c1ccc(F)cc1)N(c1ccc(F)cc1)C(=O)C2 (centres undefined),"inconclusive: 0.447 µM [inhibitor, full curve, poor fit]"
COc1ccc(-n2c(=O)c3sc4ccccc4c3n(Cc3ccccc3)c2=O)cc1,"inconclusive: 70.8 µM [inhibitor, partial curve, poor fit]"
